The target in assay [1] is Human C3d protein (Complement Technologies) (human) (UniProt P01024). Put plainly: SPR; Biacore 3000, 25°C; human C3d amine-coupled at 20-30 RU on a CM5 chip; antibodies and fusion proteins 0-200 nM flowed over in HBS-EP+; Langmuir (1:1) model; both purified. Background: Surface plasmon resonance follows binding to a sensor surface in real time, without labels.
The target is the same in assay [2]. Put plainly: ELISA; indirect ELISA; human C3d coated on 96-well plates overnight at 4°C; samples in PBS plus 0.1% BSA, 1 hour at ambient temperature; HRP-conjugated secondary antibody; EC50 by four-parameter fit; both purified.

The chains behind the UniProt entries cited, without tags or fusion partners. Residues count along the entry.
UniProt P01024, residues 1002-1303: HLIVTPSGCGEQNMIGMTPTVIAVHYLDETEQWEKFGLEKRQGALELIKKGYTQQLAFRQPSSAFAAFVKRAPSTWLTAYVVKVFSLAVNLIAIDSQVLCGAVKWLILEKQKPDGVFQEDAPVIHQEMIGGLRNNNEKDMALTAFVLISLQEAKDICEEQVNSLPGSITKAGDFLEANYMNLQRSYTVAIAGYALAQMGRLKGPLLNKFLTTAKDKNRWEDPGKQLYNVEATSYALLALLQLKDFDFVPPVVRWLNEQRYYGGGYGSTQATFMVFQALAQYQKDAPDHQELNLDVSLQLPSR
UniProt Q64735, residues 41-405: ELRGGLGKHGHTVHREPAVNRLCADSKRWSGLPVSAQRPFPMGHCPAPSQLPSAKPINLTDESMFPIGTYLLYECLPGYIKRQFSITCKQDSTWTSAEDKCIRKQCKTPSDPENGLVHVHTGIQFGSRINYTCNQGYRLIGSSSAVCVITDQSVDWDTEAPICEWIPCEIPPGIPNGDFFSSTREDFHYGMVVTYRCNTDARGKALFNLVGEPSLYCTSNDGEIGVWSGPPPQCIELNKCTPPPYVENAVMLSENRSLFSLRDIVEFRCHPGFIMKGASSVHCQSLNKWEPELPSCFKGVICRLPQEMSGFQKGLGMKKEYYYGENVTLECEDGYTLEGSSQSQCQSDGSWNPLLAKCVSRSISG

No constants are given. Whether binding was seen depends on the method and setting.

With “murine Fc−Crry (from UniProt Q64735 41-405) (Fc fusion)”, the binding result in assay [1] is given as “no binding (tested: 0-200 nM)”; in assay [2], “no binding”.
